No constants are given. Whether binding was seen depends on the method and setting. In cells and extracts the contact can be indirect. These calls come from enrichment with a bait or labelling near it, and not all partners need be listed. Tags and fused reporters may be left off the sequences shown.
T1: Flag-SAMP1 S85R (Haloferax volcanii) (UniProt D4GUF6)
T1 sequence: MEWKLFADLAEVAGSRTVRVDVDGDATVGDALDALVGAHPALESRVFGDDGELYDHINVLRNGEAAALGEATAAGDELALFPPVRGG

B1: Molybdopterin molybdenum transferase MoeA2 (protein, UniProt D4GWD6 1-634)
chain: MRKQFRDLASPEDAREAIASLDLTPDAETVALDDARGRVLAERIDAELDVPGFDRASMDGYAVRARDTFGADEADPVELDLAGAVHAGNEPDVAVDPGTAVEISTGAVMPPGADAVVIVERTEERDGSLVVYSSVAPGDSVMPAGTDTAAGARALGPGTRLTPREIGLLSALGVDEVPVRGKPTVGIVSTGDELVRPGDELRPEAGEIYDVNSYTIAAGVEEAGGVPKLYPHAGDDYEEMERLLRRAADECDLVLSSGSTSASAVDVIYRVVEERGELLLHGVSVKPGKPMLVGTLGEGSAYIGLPGYPVSALTIFRTFVAPAVRDAAGLPEPRTATVEGTMAARERYAEGRTRLMPVGLVADGDGETLVYPVDKGSGATTSLVEADGVVEVSADVEYLAEGESVTVHLFSPDVRAPALLGVGEDDPALSRVLDRVSSPRYLPFGSREGLRRLRDGISDVAVVAGDRGDAIDDIDAVELGSWTREWGLVVPAGNPDGVSGLADLVDDDLRFINRDSNSGLRTDLGNAVAALADERGTTRHELVESIEGFDRGTKAFESPARAVAAGRADAGLGLRATADSLGLDFVSLGTQPVAVLANPARIEKPGVDSLRDALAASDDAFADLSGFERGQTPR
B2: Fe-S cluster assembly ATPase SufC (protein, UniProt D4GUK6 1-301)
chain: MATLEIKNLHARVAEEDGEQILRGVDLEVKSGEIHALMGPNGSGKSTTSKIIAGHPAYEVTDGEILLHLEDDDFGDLEIPDDARTWNLLELEPNERAALGIFLGFQYPAEIEGVTMTNFLRTALNAKIDEREELLFGEDAEEEEEEAGYDTSPMEGNVDDGEVGVAEFQKLLKEKMDLLDMDEKFMQRYLNAGFSGGEKKQNEVLQAAILEPSIAVLDEIDSGLDIDRLQDVSKGINALRDEQGTGILQITHYQRILEYVEPDHVHIMLDGKVVKSGDASLASELEDKGYDWVREEVYEAA
B3: Thermosome subunit 1 (protein, UniProt O30561 1-560)
chain: MSQRMQQGQPMIILGEDSQRTSGQDAQSMNITAGKAVAEAVRTTLGPKGMDKMLVDSGGQVVVTNDGVTILKEMDIDHPAANMIVEVSETQEDEVGDGTTTAVINAGELLDQAEDLLDSDVHATTIAQGYRQAAEKAKEVLEDNAIEVTEDDRETLTKIAATAMTGKGAESAKDLLSELVVDAVLAVKDDDGIDTNNVSIEKVVGGTIDNSELVEGVIVDKERVDENMPYAVEDANIAILDDALEVRETEIDAEVNVTDPDQLQQFLDQEEKQLKEMVDQLVEVGADAVFVGDGIDDMAQHYLAKEGILAVRRAKSSDLKRLARATGGRVVSSLDDIEADDLGFAGSVGQKDVGGDERIFVEDVEDAKSVTLILRGGTEHVVDELERAIEDSLGVVRTTLEDGKVLPGGGAPETELSLQLREFADSVGGREQLAVEAFAEALDIIPRTLAENAGLDPIDSLVDLRSRHDGGEFAAGLDAYTGEVIDMEEEGVVEPLRVKTQAIESATEAAVMILRIDDVIAAGDLSGGQTGSDDDDGGAPGGMGGGMGGMGGMGGMGGAM

Target: T1, Flag-SAMP1 S85R (Haloferax volcanii)
Assay: affinity purification with mass spectrometry; Flag-SAMP1 S85R expressed in Hfx. volcanii H26 (parent) grown with 100 mM DMSO; lysate (2 M NaCl, 1% Triton X-100, 1 mM EDTA) on anti-Flag M2 beads, washed in TBS, eluted with 3x Flag peptide; reducing SDS-PAGE, gel regions of 30 to 45 and 60 to 200 kDa analysed by LC-MS/MS; ΔmsrA strain in …

| Binder | binding |
| --- | --- |
| B1 | binds |
| B2 | binds |
| B3 | binds |
